Measurements from PubChem BioAssay AID2685 (National Center for Advancing Translational Sciences (NCATS), 2010).
Screen size: about 320,000 compounds; about 2,100 (0.66%) were called active. Inconclusive results, whose numbers are uncertain, are shown with a selection of clear calls. The call rests on the fitted dose curve; in most records, active means well fitted inhibition curve with a large enough effect in the signal ratio, with a control signal flat (not every such curve was filed as active); inconclusive means small, poorly fitted or top-dose-only effect, or effect the other way, or a change in a side signal; inactive means flat fitted curve, though single readings scatter; the % refers to the signal ratio. Potencies of inconclusive entries are doubtful fits and often do not repeat.

Experiment: qHTS Assay for Lipid Storage Modulators in Drosophila S3 Cells
Conditions: BODIPY lipid droplet fluorescence, 18-24 h, cells fed with added oleic acid; lipid storage change, negative = inhibition: at 46.1 µM (top of the series) unless noted
Procedure, shortened: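 Drosophila S3 cells got compounds at several concentrations plus oleic acid (400 uM solution). Laser-scanning cytometry with 488 nm excitation read lipid droplets at 500-530 nm and cells at 575-640 nm. Percent activity was relative to 20 uM Triacsin C.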
On the % scale 0 is the no-effect control and ±100 the full control effect; potency means the concentration at half of the fitted maximal effect.

Row | Structure (SMILES) | Potency | lipid storage change, negative = inhibition
1 | O=C1/C(=C2/NCCN2C2CC(=O)N(c3ccccc3)C2=O)CC/C1=C\c1ccccc1 (stereo not given) | inconclusive: 0.517 µM [falling, full curve] | 
2 | O=C1CSc2ccccc2N1Cc1ccc(F)cc1 |  | inconclusive: 27%
3 | CCOC(=O)N1CCN(C2=Nc3cccc4cccc2c34)CC1 |  | inconclusive: -38.6%
4 | Cn1ncc2c(NNC(=O)c3ccc(O)cc3)ncnc21 | inconclusive: 29.1 µM [falling, single point] | 
5 | O=C(CCCOc1ccccc1)N1CCc2ccccc2C1 | inconclusive: 6.51 µM [falling, single point] | 
6 | Cc1nn(CC(=O)N2CCOCC2)c(C)c1[N+](=O)[O-] |  | inconclusive: -8.66%
7 | CCC1Sc2ccc(S(=O)(=O)CCC(=O)N3CCc4ccccc43)cc2NC1=O (stereo not given) | inconclusive: 29.1 µM [activator, single point] | 
8 | CCN1CCN(c2ccc(S(=O)(=O)N3CCOCC3)cc2NC(=O)CCSC)CC1 | inconclusive: 0.0046 µM [cytotoxic, full curve, poor fit] | 
9 | O=C1CN(C(=O)CC2C(=O)NCCN2Cc2ccccc2C(F)(F)F)CCN1 (stereo not given) |  | inconclusive: 24%
10 | Oc1ccc(Oc2ccc3c(C(F)(F)F)cc(C(F)(F)F)nc3n2)cc1 |  | inconclusive: -29.4%
11 | N=C1C(c2nc3ccccc3s2)=C(O)CN1NC(=O)c1c[nH]c2ccccc12 | inconclusive: 29.1 µM [falling, single point] | 
12 | COc1ccc(C(C(=O)NC2CCCCC2)N(C(=O)Cc2c[nH]c3ccccc23)c2ccc(NC(C)=O)cc2)cc1OC (stereo not given) |  | inconclusive: 26%
13 | COc1ccc(-c2cc(C(=O)N3CCN(c4ccccn4)CC3)c3ccccc3n2)cc1 |  | inconclusive: -37.9%
14 | COc1ccc(CNC(=O)COC(=O)/C=C/c2ccc(Cl)cc2)cc1 |  | inconclusive: -51%
15 | Cc1onc(-c2ccccc2Cl)c1C(=O)N(Cc1nc(-c2ccccc2)no1)C1CCCCC1 | inconclusive: 6.51 µM [rising, single point] | 
16 | Cc1ccc(C)c(N2CCN(S(=O)(=O)c3cc4c(cc3C)NC(=O)CO4)CC2)c1 | inconclusive: 0.0073 µM [falling, full curve, poor fit] | 
17 | CCN(CCCNC(=O)CN1C(=O)COc2ccccc21)c1ccccc1 |  | inconclusive: 24.3%
18 | COC(=O)c1ccc(SCC(=O)NC2CCCCC2)c([N+](=O)[O-])c1 |  | inconclusive: 21.5%
19 | O=C(c1c(F)cccc1F)N(Cc1cccs1)C1CCCC1 |  | inconclusive: -15.5%
20 | Cc1cccc(NC(=O)C2CCN(C(=O)NCc3ccccc3)CC2)c1C |  | inconclusive: 120%
21 | O=C(NCc1ccco1)C1CCCN1C(=O)NCc1ccccc1 (stereo not given) |  | inconclusive: -0.575%
22 | CC(C)NS(=O)(=O)c1ccc(NC(=O)C(C)OC(=O)CCC(=O)c2cccs2)cc1 (stereo not given) | inconclusive: 29.1 µM [cytotoxic, partial curve, poor fit] | 
23 | CC(C)C[C@H](NC(=O)N1CCn2c1nc1ccccc12)C(=O)NCc1ccc2c(c1)OCO2 | inconclusive: 18.4 µM [falling, single point] | 
24 | O=c1cc(CN2CCN(S(=O)(=O)c3ccccc3)CC2)nc2sccn12 |  | inconclusive: -12%
25 | CCCCC(=O)N1CCN(c2nc3ccc(OCC)cc3s2)CC1 |  | inconclusive: -100%

Row | Structure (SMILES) | Potency | lipid storage change, negative = inhibition
26 | CCCc1cc(=O)[nH]c(SCC(=O)Nc2sc3c(c2C#N)CCCC3)n1 |  | inconclusive: -4.71%
27 | c1cncc(C(c2nnnn2C2CCCC2)N2CCN(Cc3ccc4c(c3)OCO4)CC2)c1 (stereo not given) | inconclusive: 5.17 µM [activator, partial curve] | 
28 | O=C(CSc1nc2cc(Cl)ccc2s1)NCc1ccc2c(c1)OCO2 |  | inconclusive: -11.6%
29 | COc1ccc(CNC(=O)Cn2c(=O)n(CCC(=O)N3CCCCC3)c(=O)c3sccc32)cc1 |  | inconclusive: -0.645%
30 | COc1cccc(CN2CCN(Cc3cc(OC)c(OC)c(OC)c3)CC2)c1OC |  | inconclusive: -21.5%
31 | CC(=O)c1cnc2c(-c3cccc(Br)c3)cnn2c1C | inconclusive: 0.231 µM [activator, full curve] | 
32 | Cc1ccccc1OCc1nnc(SCc2cc(=O)[nH]c3ccccc23)o1 | inconclusive: 6.51 µM [rising, single point] | 
33 | O=C(CCC(=O)c1cccs1)OCC(=O)c1ccc(Cl)s1 | inconclusive: 3.66 µM [activator, full curve] | 
34 | Cc1cccc2nc3c(nc12)-c1ccccc1C3=O | inconclusive: 0.164 µM [activator, full curve, poor fit] | 
35 | CCc1cccc(NC(=O)CCc2nc(-c3cccs3)no2)c1 |  | inconclusive: 4.25%
36 | Cc1ccc(C(=O)NCC(=O)OCN2C(=O)c3ccccc3C2=O)cc1C |  | inconclusive: 8.27%
37 | CCc1cccc(NC(=O)CN(c2ccc(C)cc2)S(=O)(=O)c2c(C)noc2C)c1 | inconclusive: 29.1 µM [falling, single point] | 
38 | CC1CCc2c(C(=O)Oc3cccc(-n4cnnn4)c3)csc2C1 (stereo not given) | inconclusive: 0.184 µM [falling, full curve, poor fit] | 
39 | COc1ccc(C)cc1-n1c(SCC(=O)Nc2cc(C)on2)nc2sc(C)c(C)c2c1=O |  | inconclusive: 0.878%
40 | Cc1ccc(S(=O)(=O)N2CC(=O)Nc3ccccc32)cc1C |  | inconclusive: 17.8%
41 | O=C(COC(=O)c1ccccc1NCCO)NCCC1=CCCCC1 |  | inconclusive
42 | Cc1ccsc1CN(C)C(=O)c1cc(S(=O)(=O)N2CCOCC2)ccc1N1CCCC1 | inconclusive: 0.164 µM [falling, full curve, poor fit] | 
43 | O=C1NC(c2ccccc2Cl)Nc2ccccc21 (stereo not given) |  | inactive: -6.86%
44 | COc1ccc(N2CC(C(=O)Nc3nc(-c4ccccc4)c(C(C)=O)s3)CC2=O)c(OC)c1 (stereo not given) |  | inconclusive: 40.5%
45 | CCOc1ccc(N/C=C/C(=O)c2ccc3ccccc3c2)c([N+](=O)[O-])c1 |  | inconclusive: 16.3%
46 | Cc1ccc(N2CC(NC(=O)N3CCN(C(=O)c4ccco4)CC3)CC2=O)cc1 (stereo not given) |  | inconclusive: 14.4%
47 | COc1ccc(/C=C(\C#N)C(=O)NCc2cccs2)cc1OC | inconclusive: 23.1 µM [falling, partial curve] | 
48 | COc1ccc(/C=C/c2nc(C#N)c(NCCN(C)C)o2)cc1OC |  | inconclusive: 10.3%
49 | CN1CCc2c(sc3nc(NN)n(Cc4ccccc4)c(=O)c23)C1 |  | inconclusive: 0.965%
50 | COc1ccc(C(=O)N2CCN(Cc3ccc4c(c3)OCO4)CC2)cc1OC |  | inconclusive: -12.5%

Ordered by number of heavy atoms (low to high): 4 of the compounds above.
Row | Structure (SMILES) | Potency | lipid storage change, negative = inhibition
19 | O=C(c1c(F)cccc1F)N(Cc1cccs1)C1CCCC1 |  | inconclusive: -15.5%
49 | CN1CCc2c(sc3nc(NN)n(Cc4ccccc4)c(=O)c23)C1 |  | inconclusive: 0.965%
20 | Cc1cccc(NC(=O)C2CCN(C(=O)NCc3ccccc3)CC2)c1C |  | inconclusive: 120%
27 | c1cncc(C(c2nnnn2C2CCCC2)N2CCN(Cc3ccc4c(c3)OCO4)CC2)c1 (stereo not given) | inconclusive: 5.17 µM [activator, partial curve] | 

(continued)

Row | Structure (SMILES) | Potency | lipid storage change, negative = inhibition
51 | Cc1cc(CN2CCCCC2)oc1C(=O)O | inconclusive: 11.6 µM [falling, partial curve] | 
52 | C=CCN=C1NN=C(c2cc(C)n(CCOC)c2C)CS1 |  | inconclusive: 44.1%
53 | Cc1c(C(=O)Nc2ccccc2)sc2ncn(CC(=O)N3CCCCC3)c(=O)c12 |  | inconclusive: -8.73%
54 | CC(C)N1CC(O)=C(c2ccccc2)C1=N | inconclusive: 0.206 µM [falling, full curve] | 
55 | COc1ccc(C(=O)Nc2ccc(N3CCCC3)cc2)cc1OC |  | inconclusive: -9.07%
56 | COc1ccc(C(=O)NC(=S)NCc2cccnc2)cc1[N+](=O)[O-] | inconclusive: 6.51 µM [activator, single point] | 
57 | Cc1ccc(S(=O)(=O)Cn2nnnc2C(C)N2CCN(C(=O)c3ccco3)CC2)cc1 (stereo not given) |  | inconclusive: 62.9%
58 | CCOC(=O)C1CCN(CC(O)COCc2ccc(Cl)cc2)CC1 (stereo not given) | active: 18.4 µM | 
59 | O=C(Nc1ccncc1)C1CCN(S(=O)(=O)c2ccc(Cl)c(C(F)(F)F)c2)CC1 | active: 10.3 µM | 
60 | COc1cc(NC(=O)CCc2nnc3ccc(N4CCCCC4)nn23)cc(OC)c1OC |  | inconclusive: 17.7%
61 | CC(C)(C)OC(=O)CN1c2cccc3cccc(c23)S1(=O)=O |  | inconclusive: 65.5%
62 | CC(=O)c1c2c3c(c(Br)ccc3n(C)c1=O)C(=O)c1ccccc1-2 |  | inconclusive: -37.7%
63 | O=C(Cc1cccc(C(F)(F)F)c1)Nc1cc(S(=O)(=O)N2CCOCC2)ccc1N1CCCC1 | inconclusive: 0.651 µM [falling, single point] | 
64 | CCCCNS(=O)(=O)NC(=O)C1=C(N2CCCC2)COC1=O |  | inconclusive: 3.59%
65 | CCNC(=S)N1C2CCC1CC(NC(=O)Nc1ccc(C(=O)OCC)cc1)C2 (stereo not given) |  | inconclusive: 22.9%
66 | Brc1cc2c(cc1Br)OCCOCCOCCO2 |  | inconclusive: 22.5%
67 | O=C(NCc1ccccn1)Nc1cccc(Cl)c1Cl |  | inconclusive: 19.3%
68 | Cc1ccc(CNC(=O)C2(C)Oc3ccccc3NC2=O)cc1 (stereo not given) |  | inactive: 18.2%
69 | Cc1nnc(NC(=O)CCCOc2ccccc2)s1 | inconclusive: 9.2 µM [activator, partial curve, poor fit] | 
70 | COC(=O)C(Cc1ccccc1)OS(N)(=O)=O (stereo not given) | inconclusive: 1.64 µM [activator, partial curve] | 
71 | O=C(CSc1nc2ccccc2c(=O)n1-c1ccccc1)NC(=O)CN1CCCC1=O | inconclusive: 6.51 µM [activator, single point] | 
72 | Cc1ccc(C)c(S(=O)(=O)N2CCCCC2CCNC(=O)C(=O)NC2CCCC2)c1 (stereo not given) |  | inconclusive: -21.1%
73 | COc1cc(C)ccc1OCC(=O)OCC(=O)c1cc(C)n(CC2CCCO2)c1C (stereo not given) |  | inconclusive: -11.2%
74 | Cc1cc(-c2ccccc2)nc(N(C)NC(=O)c2cccc(C(F)(F)F)c2)c1S(C)(=O)=O | inconclusive: 1.84 µM [rising, partial curve] | 
75 | COc1ccc(/C=C/C(=O)c2ccc(Cl)s2)cc1O | inconclusive: 6.51 µM [falling, single point] | 
